Results taken from US20050118601.
For part of these data: No signal at the amounts used counts as a negative. For part of these data: Protein sequences can lack the tags named with them. For part of these data: The exact form of at least one protein or probe is not confirmed.

Chains of the proteins cited; added tags and fusions are not shown. Where a name states a change or a piece, a line headed by the entry shows the natural chain unless it says otherwise. Chains listed by the source or under a name are the forms on record and can include a tag or linker.
UniProt P28700: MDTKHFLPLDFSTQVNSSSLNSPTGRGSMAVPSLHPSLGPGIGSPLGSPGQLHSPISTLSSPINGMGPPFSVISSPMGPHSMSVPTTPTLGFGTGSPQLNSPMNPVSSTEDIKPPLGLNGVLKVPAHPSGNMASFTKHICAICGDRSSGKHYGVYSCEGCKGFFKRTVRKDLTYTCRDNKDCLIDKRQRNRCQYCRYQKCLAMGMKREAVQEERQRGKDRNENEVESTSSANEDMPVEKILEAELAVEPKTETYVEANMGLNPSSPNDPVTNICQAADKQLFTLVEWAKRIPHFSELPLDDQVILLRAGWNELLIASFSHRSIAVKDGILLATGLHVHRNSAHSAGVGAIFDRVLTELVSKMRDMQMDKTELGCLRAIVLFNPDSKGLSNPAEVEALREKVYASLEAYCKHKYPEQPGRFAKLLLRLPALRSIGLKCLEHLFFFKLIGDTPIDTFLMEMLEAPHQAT
UniProt P19793: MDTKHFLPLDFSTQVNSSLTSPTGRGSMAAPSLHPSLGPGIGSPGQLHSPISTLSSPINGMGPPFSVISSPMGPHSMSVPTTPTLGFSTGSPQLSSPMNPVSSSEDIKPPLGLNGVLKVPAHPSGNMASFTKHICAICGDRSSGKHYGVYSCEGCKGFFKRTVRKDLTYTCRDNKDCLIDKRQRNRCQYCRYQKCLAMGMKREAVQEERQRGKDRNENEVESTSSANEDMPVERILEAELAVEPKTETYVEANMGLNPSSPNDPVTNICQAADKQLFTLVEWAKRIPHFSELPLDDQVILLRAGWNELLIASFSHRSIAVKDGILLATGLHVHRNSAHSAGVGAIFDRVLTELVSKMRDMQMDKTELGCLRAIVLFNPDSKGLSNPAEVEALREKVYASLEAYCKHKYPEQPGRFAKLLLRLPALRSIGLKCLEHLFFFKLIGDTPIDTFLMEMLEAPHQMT
PXR/RXRalpha heterodimer (Homo sapiens), one chain, as listed by the source: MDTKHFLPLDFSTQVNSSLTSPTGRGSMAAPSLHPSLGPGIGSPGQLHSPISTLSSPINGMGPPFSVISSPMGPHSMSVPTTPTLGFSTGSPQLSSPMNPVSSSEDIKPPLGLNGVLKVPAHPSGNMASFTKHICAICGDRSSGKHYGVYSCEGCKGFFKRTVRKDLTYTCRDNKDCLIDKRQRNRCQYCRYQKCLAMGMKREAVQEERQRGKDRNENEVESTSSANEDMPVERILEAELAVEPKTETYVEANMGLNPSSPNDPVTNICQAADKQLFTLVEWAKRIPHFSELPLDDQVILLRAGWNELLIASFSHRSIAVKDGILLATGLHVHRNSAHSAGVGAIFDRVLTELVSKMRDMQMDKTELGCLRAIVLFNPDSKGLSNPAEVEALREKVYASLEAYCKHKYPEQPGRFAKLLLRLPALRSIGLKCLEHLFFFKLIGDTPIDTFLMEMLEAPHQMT
PXR/RXR heterodimer (Mus musculus), one chain, as listed by the source: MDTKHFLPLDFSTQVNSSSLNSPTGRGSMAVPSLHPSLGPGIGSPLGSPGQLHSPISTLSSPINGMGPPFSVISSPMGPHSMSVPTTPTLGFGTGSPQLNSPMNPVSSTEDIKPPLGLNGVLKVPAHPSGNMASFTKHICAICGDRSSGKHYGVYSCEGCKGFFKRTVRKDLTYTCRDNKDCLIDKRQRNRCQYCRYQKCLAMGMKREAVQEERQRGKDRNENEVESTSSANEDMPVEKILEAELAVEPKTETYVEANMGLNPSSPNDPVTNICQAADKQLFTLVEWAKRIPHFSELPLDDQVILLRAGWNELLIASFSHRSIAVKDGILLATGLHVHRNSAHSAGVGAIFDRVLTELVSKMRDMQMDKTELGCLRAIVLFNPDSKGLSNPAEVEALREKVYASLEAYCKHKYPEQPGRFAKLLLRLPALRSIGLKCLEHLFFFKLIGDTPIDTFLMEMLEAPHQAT

Assays:
[1] = tested on: PXR/RXR heterodimer (Mus musculus); test: EMSA; conditions: 40 mM KCl, pH 8.0, poly(dI-dC), room temperature; protein translated in vitro; protein details: TNT T7 Quick Coupled; label: 32P
[2] = target: T1, CAR (Mus musculus) (UniProt O35627); test: EMSA; conditions: CAR alone; protein translated in vitro; protein details: TNT T7 Quick Coupled; label: 32P
T1 sequence (looked up, limits assumed): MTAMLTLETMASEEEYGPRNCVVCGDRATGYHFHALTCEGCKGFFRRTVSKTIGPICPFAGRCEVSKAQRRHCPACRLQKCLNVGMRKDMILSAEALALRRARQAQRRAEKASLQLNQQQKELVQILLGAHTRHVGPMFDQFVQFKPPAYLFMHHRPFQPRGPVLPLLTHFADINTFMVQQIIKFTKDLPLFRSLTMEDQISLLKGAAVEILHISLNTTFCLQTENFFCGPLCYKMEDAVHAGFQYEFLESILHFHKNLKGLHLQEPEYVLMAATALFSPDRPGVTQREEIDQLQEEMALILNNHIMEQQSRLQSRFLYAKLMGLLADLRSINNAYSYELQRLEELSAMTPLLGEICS

[3] = target: RXR (Mus musculus) (UniProt P28700); test: EMSA; conditions: RXR alone; text for FIG. 15A says bound, likely a missing negation; protein translated in vitro; protein details: TNT T7 Quick Coupled; label: 32P
[4] = tested on: CAR/RXR heterodimer (Mus musculus); test: EMSA; conditions: protein translated in vitro; protein details: TNT T7 Quick Coupled; label: 32P
[5] = target: T2, PXR (Mus musculus) (UniProt O54915); test: activity in cells; conditions: PCN, CV-1 cells, protein in cells, protein details: pSG5 expression
T2 sequence (looked up, limits assumed): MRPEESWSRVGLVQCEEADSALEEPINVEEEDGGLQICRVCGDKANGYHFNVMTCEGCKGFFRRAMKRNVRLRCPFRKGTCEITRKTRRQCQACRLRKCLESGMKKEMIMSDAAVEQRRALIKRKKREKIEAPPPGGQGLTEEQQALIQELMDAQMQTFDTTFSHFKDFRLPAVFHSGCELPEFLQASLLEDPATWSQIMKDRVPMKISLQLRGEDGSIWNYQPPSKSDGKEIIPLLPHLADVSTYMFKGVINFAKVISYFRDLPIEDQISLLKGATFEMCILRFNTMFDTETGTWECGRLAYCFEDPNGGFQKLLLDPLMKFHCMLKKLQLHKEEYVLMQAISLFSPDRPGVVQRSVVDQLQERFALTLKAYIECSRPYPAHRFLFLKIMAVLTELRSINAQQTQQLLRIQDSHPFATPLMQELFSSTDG

[6] = target: T3, CXR (Gallus gallus) (UniProt A0A8V1AGS4); test: EMSA; conditions: CXR alone; protein translated in vitro; protein details: TNT T7 Quick Coupled, pSG5; label: 32P
T3 sequence (looked up, limits assumed): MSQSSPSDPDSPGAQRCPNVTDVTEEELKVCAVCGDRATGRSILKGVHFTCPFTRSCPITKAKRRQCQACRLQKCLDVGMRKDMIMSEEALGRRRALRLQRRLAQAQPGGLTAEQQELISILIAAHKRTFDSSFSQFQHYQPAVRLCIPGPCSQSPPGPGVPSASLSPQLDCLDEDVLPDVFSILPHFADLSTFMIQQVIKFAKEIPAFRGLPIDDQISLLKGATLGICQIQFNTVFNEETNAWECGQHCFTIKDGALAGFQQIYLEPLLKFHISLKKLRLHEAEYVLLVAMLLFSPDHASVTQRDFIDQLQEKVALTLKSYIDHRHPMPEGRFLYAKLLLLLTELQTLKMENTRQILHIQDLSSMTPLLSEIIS

[7] = target: RXRalpha (Homo sapiens) (UniProt P19793); test: EMSA; conditions: RXRalpha alone; protein translated in vitro; protein details: TNT reticulocyte lysate; label: radiolabel
[8] = tested on: PXR/RXRalpha heterodimer (Homo sapiens); test: EMSA; conditions: protein translated in vitro; protein details: TNT reticulocyte lysate; label: radiolabel
[9] = target: T4, CAR (Homo sapiens) (UniProt Q14994); test: EMSA; conditions: CAR alone; protein translated in vitro; protein details: TNT reticulocyte lysate; label: radiolabel
T4 sequence (looked up, limits assumed): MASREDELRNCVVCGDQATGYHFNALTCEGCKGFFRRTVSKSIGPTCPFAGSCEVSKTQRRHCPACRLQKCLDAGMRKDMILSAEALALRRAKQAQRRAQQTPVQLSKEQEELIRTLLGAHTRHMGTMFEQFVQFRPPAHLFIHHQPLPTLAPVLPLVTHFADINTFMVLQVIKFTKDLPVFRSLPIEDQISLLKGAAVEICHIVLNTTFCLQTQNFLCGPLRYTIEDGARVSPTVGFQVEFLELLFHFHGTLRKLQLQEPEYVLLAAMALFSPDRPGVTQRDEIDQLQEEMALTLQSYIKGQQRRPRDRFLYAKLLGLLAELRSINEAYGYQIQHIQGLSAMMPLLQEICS

[10] = tested on: CAR/RXRalpha heterodimer (Homo sapiens); test: EMSA; conditions: protein translated in vitro; protein details: TNT reticulocyte lysate; label: radiolabel
[11] = target: T5, PXR (Homo sapiens) (UniProt O75469); test: EMSA; conditions: PXR alone; protein translated in vitro; protein details: TNT reticulocyte lysate; label: radiolabel
T5 sequence (looked up, limits assumed): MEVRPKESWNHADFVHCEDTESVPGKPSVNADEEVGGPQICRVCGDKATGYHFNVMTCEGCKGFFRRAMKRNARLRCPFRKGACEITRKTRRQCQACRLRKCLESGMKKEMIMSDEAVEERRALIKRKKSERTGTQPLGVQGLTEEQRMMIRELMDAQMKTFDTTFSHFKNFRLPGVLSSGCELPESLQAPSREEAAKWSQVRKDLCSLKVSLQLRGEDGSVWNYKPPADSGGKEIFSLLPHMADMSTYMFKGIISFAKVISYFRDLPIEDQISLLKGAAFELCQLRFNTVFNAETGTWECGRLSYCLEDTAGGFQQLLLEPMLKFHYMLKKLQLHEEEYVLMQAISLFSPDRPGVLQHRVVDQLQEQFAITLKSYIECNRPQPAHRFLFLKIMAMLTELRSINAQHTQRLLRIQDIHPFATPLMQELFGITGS

“GTGGCTGGGTTGGGATGGGATGGGAAGGCTTGTGTCTCTCTGATTCCTAGTCCAGTCAGAACCTTCTGGCTTCTGCCATGAGACAGCCTATGAGCTCATCAGGTTCCTGGTGGAGAGCTGGGTGAACCGAGTTCGTTTGCACTGCCTTGGCCTGTGTGTGGCTTCAGGAACAGGTCATGCTCCAGGATTTAGGACACAGGTTAGCTGATAAGGCCCATGGAGCCGGTGATATGACCCGCAGGGTCACTCCCTCTGCCCAAGTCTAGATACTTGTTTCCCTCTTTAGACTCCAGATCAAGGACTCCAGATCTGTCATGGACTCAGAAAACCCCCCAGTACCACCCCACCCCCGCTGCTCCCTCCTATGAT (double strand) [369 bp ADRES]”: binds [1]; no binding [2]; no binding [3]. The binding result [4] was “binds” and the activity on this sequence (fold induction) [5] was 5.6.
“GGGCTCCATCGGCCTCTTCAGGTTATTGCTATGTTCAACTCGTGTGACCTTCCTCCCTGTTTTCAAGGTTCTGATAACAAACTTCTAGGACAGCCTGGTGACCTTTGGCTCAGCTTCCTCTTTAAACTCCGGTGGCTTTTGCTTCATTGCCTAGTTGTTACCCAGCAGTAAAGATC (double strand) [176 bp ADRES]”: no binding [6].
“CTGCCTCCAGTCCTGAACTTTCTCTGCTGGGATGAGCAGAGTTCACGCTCGGCTGAACTCGTGACTGTGTCAACAGGGGGCATGAAGATCAGCACCAGGCAAAGGTGAGCGGAGTGCACAAGAATGAGGCAGAGACCTTTGGGACAAAGAGTTCCCCACCCGTGGGG (double strand) [167 bp ADRES]”: no binding [6].
“TCTGGCAGTCAGACAGGCCTAAGCTAAACCTTTCCCCCCCAGCTACCCACCAGGGTCATCCCCAAGCCAGGTCAGGGCCAATGGAGGTTGGGGTGGAGAAGACAGGCTTGGCCCTATTTCCTGCCCAACTCAGAACCTTCTGGTTTCTGCCACAGGATGCCTTGCAAGCTTATCGGGGTCACTGTGGGCAGCTGGGTGAGCTAAGTTCATCTGTGCTGCCGTGACCTCTGTGCAGATGCA (double strand) [hA240]”: no binding [7]; binds [8]; no binding [9]. “TCTGGCAGTCAGACAGGCCTAAGCTAAACCTTTCCCCCCCAGCTACCCACCAGGGTCATCCCCAAGCCAGGTCAGGGCCAATGGAGGTTGGGGTGGAGAAGACAGGCTTGGCCCTATTTCCTGCCCAACTCAGAACCTTCTGGTTTCTGCCACAGGATGCCTTGCAAGCTTATCGGGGTCACTGTGGGCAGCTGGGTGAGCTAAGTTCATCTGTGCTGCCGTGACCTCTGTGCAGATGCA (double strand) [hA240]”: binds [10]; no binding [11].
